The list shows a part of the results, in another mix than the full data.
Compound: COC(=O)C#Cc1ccccc1 [methyl 3-phenylpropiolate]
Assay: log2 ratio of iodoacetamide-alkyne labeling of the cysteine site, DMSO over compound (competition); higher = stronger covalent engagement of the cysteine by the compound, active = 1 or more
Details: 500 µM; treatment time 1 h; system: HEK293T cell lysate
Procedure, shortened: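 For each cysteine, the log2 competition ratio is mean control-channel reporter intensity over mean compound-channel reporter intensity. HEK293T lysate (2 mg/mL) was exposed to vehicle or electrophile (500 µM, 1 h, ambient temperature), labelled with iodoacetamide alkyne (1 h), clicked to sCIP-TMT reagents, digested overnight with trypsin at 37 °C, streptavidin-enriched and analysed by Orbitrap Eclipse LC-MS/MS with FAIMS and FragPipe. Cysteines quantified in only one of three replicates, each with duplicate channels, were excluded.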

Sequences of proteins named here, by UniProt entry; tags and fusion partners are left off. A change or cut given only in a name is not applied to a line headed by its entry.
UniProt Q9BVP2: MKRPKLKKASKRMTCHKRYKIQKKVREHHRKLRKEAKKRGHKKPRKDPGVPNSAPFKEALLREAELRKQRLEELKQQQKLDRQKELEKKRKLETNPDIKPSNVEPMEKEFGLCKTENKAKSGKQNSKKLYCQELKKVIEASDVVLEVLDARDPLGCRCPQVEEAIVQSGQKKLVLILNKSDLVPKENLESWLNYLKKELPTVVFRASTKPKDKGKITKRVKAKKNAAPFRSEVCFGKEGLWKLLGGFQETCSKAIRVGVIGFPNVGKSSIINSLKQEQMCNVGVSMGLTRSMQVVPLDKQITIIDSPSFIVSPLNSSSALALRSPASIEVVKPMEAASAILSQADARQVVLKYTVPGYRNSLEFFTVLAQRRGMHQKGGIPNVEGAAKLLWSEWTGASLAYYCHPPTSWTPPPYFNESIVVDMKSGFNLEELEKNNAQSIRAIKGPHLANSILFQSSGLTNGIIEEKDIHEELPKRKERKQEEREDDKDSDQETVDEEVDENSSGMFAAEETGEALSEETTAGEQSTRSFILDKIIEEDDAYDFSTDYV
UniProt Q9GZR2: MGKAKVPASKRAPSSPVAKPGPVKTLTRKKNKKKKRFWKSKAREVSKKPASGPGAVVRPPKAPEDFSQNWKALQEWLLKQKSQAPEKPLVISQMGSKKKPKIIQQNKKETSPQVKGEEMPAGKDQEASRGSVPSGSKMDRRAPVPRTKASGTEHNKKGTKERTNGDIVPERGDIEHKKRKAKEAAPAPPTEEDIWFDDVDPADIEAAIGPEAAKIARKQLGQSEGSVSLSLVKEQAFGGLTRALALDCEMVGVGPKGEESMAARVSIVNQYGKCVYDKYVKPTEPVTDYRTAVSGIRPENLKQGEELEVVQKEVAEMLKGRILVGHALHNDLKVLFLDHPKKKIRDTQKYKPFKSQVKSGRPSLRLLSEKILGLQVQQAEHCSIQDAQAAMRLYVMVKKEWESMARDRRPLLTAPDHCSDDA
UniProt Q9BW62: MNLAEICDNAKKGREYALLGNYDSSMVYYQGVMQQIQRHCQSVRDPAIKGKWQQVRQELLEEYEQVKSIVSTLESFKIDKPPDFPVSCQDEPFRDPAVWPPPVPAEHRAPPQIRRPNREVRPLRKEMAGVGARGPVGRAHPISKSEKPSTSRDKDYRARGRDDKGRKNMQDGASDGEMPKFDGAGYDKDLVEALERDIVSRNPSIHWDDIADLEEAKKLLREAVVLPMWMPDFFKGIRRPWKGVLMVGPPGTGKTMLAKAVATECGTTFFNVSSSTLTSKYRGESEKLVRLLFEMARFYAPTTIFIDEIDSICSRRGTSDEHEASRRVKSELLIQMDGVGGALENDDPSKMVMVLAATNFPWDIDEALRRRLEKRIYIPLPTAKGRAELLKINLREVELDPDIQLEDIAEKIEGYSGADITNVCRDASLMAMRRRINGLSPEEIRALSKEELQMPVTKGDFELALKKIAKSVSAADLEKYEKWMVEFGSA
UniProt Q9C0C2: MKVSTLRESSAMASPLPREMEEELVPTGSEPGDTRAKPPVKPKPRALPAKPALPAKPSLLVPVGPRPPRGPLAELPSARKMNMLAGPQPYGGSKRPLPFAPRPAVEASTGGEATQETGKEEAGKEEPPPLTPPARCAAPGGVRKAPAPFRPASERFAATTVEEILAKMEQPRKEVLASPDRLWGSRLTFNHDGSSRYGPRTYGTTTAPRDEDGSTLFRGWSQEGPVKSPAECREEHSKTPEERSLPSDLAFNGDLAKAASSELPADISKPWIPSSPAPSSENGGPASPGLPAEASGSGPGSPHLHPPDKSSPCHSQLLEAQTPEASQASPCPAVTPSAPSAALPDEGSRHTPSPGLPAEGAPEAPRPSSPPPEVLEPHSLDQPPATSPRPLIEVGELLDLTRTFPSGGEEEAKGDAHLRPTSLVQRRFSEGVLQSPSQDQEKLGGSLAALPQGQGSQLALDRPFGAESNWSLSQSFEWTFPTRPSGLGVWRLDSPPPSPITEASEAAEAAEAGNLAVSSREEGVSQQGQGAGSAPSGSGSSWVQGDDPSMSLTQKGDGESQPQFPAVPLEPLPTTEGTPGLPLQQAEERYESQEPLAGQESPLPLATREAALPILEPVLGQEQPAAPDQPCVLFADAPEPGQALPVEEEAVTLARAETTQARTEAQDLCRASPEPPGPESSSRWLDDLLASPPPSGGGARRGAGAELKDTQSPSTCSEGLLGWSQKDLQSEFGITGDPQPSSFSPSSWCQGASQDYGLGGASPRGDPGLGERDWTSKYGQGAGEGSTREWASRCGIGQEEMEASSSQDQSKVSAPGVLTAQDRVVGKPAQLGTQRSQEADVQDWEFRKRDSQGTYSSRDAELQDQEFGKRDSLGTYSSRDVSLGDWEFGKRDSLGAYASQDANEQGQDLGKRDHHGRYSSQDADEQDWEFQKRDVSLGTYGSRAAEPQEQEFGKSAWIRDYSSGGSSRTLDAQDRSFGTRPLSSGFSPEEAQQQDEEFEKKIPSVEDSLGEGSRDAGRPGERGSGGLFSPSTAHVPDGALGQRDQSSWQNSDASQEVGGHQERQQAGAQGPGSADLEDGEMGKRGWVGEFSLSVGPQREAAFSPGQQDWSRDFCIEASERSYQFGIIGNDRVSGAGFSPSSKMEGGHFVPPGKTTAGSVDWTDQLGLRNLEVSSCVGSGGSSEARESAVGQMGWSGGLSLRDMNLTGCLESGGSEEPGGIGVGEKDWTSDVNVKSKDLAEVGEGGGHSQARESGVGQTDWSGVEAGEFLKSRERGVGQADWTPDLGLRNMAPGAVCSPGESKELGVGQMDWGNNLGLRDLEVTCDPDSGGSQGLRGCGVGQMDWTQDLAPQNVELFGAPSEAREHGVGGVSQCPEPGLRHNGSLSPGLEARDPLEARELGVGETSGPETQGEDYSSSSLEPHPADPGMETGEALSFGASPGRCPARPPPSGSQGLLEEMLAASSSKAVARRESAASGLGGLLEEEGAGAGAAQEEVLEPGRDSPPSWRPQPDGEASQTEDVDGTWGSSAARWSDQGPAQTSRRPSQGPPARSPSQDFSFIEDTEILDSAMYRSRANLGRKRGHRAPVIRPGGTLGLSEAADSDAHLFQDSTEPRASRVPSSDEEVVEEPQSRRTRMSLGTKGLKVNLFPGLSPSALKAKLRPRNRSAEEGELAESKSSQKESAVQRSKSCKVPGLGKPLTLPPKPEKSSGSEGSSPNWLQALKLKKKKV
UniProt Q9BSD7: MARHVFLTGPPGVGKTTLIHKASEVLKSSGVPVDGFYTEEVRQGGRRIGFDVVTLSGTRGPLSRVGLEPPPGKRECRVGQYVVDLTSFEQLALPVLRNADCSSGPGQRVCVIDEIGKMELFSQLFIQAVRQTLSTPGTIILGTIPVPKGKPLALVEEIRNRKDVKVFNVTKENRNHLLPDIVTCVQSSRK
UniProt Q9BRT9, whole entry: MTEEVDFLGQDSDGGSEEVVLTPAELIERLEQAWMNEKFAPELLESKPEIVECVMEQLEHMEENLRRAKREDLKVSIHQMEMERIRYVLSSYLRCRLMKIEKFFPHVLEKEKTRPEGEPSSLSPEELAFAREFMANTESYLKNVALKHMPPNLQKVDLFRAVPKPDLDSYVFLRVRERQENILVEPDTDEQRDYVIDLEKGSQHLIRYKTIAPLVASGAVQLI
UniProt Q9BQP7: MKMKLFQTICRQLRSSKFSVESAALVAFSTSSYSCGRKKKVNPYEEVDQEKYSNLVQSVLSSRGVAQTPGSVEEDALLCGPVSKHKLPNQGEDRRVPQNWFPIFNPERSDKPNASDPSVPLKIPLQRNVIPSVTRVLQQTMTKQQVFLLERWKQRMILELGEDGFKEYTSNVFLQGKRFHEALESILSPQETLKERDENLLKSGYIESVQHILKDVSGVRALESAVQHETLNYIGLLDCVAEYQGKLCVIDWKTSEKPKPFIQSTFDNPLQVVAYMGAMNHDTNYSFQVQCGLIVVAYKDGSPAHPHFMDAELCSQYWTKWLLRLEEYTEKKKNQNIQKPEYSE
UniProt Q9C0E2: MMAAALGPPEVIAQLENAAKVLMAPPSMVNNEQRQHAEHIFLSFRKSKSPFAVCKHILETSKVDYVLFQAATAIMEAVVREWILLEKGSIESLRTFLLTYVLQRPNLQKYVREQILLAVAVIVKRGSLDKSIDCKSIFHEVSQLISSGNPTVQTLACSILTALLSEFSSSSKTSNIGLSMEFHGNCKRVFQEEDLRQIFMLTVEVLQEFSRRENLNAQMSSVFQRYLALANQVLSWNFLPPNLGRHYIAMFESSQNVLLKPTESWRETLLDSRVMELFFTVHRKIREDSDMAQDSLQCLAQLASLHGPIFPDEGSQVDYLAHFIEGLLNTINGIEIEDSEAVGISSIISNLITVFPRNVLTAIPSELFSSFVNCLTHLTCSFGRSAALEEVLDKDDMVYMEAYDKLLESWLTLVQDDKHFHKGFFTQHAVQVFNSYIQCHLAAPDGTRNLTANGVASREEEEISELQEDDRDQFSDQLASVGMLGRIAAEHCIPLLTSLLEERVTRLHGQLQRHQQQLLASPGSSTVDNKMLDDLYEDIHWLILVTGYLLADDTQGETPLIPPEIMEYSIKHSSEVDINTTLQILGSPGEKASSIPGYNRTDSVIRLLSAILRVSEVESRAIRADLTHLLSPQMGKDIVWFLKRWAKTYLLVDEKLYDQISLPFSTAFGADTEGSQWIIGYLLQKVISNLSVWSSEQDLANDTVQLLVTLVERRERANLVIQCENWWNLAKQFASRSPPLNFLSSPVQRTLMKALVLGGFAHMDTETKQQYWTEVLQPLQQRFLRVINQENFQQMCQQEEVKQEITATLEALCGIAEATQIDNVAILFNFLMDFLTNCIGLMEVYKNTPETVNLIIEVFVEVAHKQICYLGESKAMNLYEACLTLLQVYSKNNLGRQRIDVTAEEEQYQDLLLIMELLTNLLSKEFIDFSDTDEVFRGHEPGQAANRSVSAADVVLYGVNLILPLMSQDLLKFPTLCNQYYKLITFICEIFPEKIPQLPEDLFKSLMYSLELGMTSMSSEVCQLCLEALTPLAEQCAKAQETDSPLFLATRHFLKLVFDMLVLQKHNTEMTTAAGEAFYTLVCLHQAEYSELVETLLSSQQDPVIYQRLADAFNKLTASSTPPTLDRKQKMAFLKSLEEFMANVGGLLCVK
UniProt Q9BUQ8: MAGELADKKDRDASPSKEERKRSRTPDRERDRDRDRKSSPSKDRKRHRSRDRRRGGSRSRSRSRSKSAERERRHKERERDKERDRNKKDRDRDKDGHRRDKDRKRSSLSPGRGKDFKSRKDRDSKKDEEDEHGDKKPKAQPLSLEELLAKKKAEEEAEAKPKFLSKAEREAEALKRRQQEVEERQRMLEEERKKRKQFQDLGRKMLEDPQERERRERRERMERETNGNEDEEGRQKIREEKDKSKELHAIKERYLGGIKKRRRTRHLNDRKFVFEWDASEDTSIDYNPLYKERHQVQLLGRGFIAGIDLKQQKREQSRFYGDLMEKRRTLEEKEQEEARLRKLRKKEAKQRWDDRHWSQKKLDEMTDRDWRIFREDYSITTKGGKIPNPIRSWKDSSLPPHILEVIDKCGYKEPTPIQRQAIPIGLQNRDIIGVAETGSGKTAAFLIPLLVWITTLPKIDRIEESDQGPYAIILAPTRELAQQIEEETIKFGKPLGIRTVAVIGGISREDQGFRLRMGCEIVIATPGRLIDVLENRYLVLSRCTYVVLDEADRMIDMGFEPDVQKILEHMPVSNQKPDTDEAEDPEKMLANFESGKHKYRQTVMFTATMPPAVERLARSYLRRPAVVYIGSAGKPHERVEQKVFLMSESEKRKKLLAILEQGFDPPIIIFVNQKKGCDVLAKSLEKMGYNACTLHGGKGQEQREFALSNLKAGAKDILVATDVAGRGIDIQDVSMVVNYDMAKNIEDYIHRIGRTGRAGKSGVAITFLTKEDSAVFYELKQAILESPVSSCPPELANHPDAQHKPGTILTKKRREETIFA
UniProt Q9H074: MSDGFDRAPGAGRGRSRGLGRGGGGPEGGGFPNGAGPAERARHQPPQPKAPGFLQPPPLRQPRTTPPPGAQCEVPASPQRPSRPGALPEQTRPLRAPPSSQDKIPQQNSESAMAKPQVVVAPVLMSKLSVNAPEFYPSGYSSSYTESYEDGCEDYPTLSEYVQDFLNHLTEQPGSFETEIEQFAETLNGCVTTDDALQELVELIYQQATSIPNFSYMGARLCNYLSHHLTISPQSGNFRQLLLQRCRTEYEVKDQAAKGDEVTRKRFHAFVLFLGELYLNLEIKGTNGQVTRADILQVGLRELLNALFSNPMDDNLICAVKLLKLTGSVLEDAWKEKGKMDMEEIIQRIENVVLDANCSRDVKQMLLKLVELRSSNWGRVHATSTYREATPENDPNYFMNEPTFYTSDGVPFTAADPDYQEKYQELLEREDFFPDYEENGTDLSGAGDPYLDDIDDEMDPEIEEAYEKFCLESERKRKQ
UniProt Q9BW83: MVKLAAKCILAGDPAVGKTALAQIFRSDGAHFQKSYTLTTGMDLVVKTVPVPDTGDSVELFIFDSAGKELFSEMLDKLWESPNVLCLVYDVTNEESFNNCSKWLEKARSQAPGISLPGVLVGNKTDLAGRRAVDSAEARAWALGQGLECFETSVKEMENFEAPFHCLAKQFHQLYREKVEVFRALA

Target	log2 ratio of iodoacetamide-alkyne labeling
NUSAP1 C256 (UniProt Q9BXS6)	inactive: 0.373
UniProt Q9BYG3_C269	inactive: 0.771
G6PC3 C269 (UniProt Q9BUM1)	inactive: 0.879
UBE2O C341 (UniProt Q9C0C9)	inactive: 0.271
GNL3 C158 (UniProt Q9BVP2)	inactive: 0.482
ANAPC1 C1412 (UniProt Q9H1A4)	inactive: 0.0508
UBE2O C406 (UniProt Q9C0C9)	active: 1.46
SLC4A1AP C730 (UniProt Q9BWU0)	active: 1.48
UniProt Q9BXP5_C479	inactive: 0.0385
SETD2 C1086 (UniProt Q9BYW2)	inactive: 0.661
REXO4 C418 (UniProt Q9GZR2)	inactive: 0.267
KATNAL1 C313 (UniProt Q9BW62)	inactive: -0.227
TNKS1BP1 C136 (UniProt Q9C0C2)	inactive: 0.642
UniProt Q9BUH6_C180	inactive: 0.883
QRSL1 C512 (UniProt Q9H0R6)	inactive: 0.615
UniProt Q9BSD7_C101	inactive: 0.546
GINS4 C53 (UniProt Q9BRT9)	inactive: -0.0159
UniProt Q9BQP7_C79	inactive: 0.323
XPO4 C1149 (UniProt Q9C0E2)	inactive: 0.048

Target	log2 ratio of iodoacetamide-alkyne labeling
WDR33 C220 (UniProt Q9C0J8)	inactive: 0.38
UniProt Q9C0B7_C360	inactive: 0.633
UniProt Q9H0G5_C171	inactive: 0.165
DDX23 C692 (UniProt Q9BUQ8)	inactive: 0.105
UniProt Q9BXJ9_C721	inactive: 0.498
UniProt Q9BWC9_C250	inactive: 0.457
UniProt Q9BRT3_C33	inactive: 0.739
MRPL37 C188 (UniProt Q9BZE1)	inactive: 0.241
RPAP1 C195 (UniProt Q9BWH6)	inactive: 0.248
UniProt Q9BYV8_C171	inactive: 0.361
UniProt Q9BTY7_C199	inactive: -0.147
TANC1 C131 (UniProt Q9C0D5)	inactive: 0.487
UTP23 C207 (UniProt Q9BRU9)	inactive: 0.409
PAIP1 C222 (UniProt Q9H074)	inactive: 0.368
UniProt Q9GZU8_C44	inactive: 0.13
UniProt Q9H1B7_C385	inactive: 0.164
UniProt Q9BW83_C166	inactive: 0.297
TNKS1BP1 C1296 (UniProt Q9C0C2)	inactive: 0.451

Exported bar-delimited: part of the list above
Target | log2 ratio of iodoacetamide-alkyne labeling
UTP23 C207 (UniProt Q9BRU9) | inactive: 0.409
PAIP1 C222 (UniProt Q9H074) | inactive: 0.368

Source: the supplement of paper PMC11006884
